According to patent publication US4990663A, “Process for preparing halogenated aromatic amines” (E. I. Du POnt de Nemours and Company, priority 1989, dated 1991):

Assay: dehalogenation inhibitor evaluation in laboratory batch hydrogenation
Procedure: The autoclave was sealed, the air was displaced with nitrogen and the autoclave was pressure tested. The nitrogen was replaced with hydrogen and the contents of the autoclave were heated to 75° C. The agitation was started and the pressure control regulator on the hydrogen feed was set to a maximum of 500 psig. […] The reduction was terminated. The autoclave was cooled, the hydrogen was displaced with nitrogen and the organic phase was separated.
Hydrogenation temperature was controlled at 110° C. instead of 96° C.

[1] = Example 10, 1.0 weight % inhibitor, otherwise as Example 8
[2] = Example 9, 0.375 weight % inhibitor, 110° C., 15.8 mg platinum

SMILES | reduction time [1] [min] | residual nitroaromatic in product amine [1] [%] | unreduced nitroaromatic (Example 8, 0.5 weight % inhibitor, 96° C., 7.9 mg platinum, terminated at 188 minutes) [%] | nitroaromatic in product amine [2] [%] | time at which hydrogen take-up essentially stopped [2] [min] | hydrogen take-up / completeness of reduction (batch, 96° C., concentrations near optimum for semicontinuous unit)
COCCN [2-methoxyethylamine] | 148 | 0.02 | – | – | – | –
NCCO [ethanolamine] | – | – | 8.8 | 0.38 | 100 | hydrogen take-up was slow and erratic, and the reduction did not go to completion
